# Source: PubChem BioAssay AID2551 (National Center for Advancing Translational Sciences (NCATS), 2010)
# Amino acid sequences for entries named in this document (tags omitted). A change or cut given only in a name is not applied to a line headed by its entry.
# UniProt P51450: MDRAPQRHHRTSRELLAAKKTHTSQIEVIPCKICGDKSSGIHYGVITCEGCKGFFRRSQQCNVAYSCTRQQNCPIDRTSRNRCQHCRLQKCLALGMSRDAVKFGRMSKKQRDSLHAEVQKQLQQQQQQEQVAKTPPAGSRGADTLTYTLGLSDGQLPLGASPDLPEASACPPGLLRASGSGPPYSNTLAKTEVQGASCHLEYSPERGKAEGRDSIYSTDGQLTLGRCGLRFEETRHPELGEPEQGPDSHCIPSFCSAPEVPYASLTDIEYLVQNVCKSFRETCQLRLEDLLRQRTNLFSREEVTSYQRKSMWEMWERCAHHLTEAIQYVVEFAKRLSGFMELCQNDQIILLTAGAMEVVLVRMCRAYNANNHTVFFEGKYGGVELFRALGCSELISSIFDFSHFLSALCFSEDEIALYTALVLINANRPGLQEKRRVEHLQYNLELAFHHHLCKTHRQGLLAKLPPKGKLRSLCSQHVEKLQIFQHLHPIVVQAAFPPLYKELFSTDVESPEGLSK
# The campaign covered roughly 310,000 compounds. About 17,000 (5.5%) were called active. Inconclusive results, whose numbers are uncertain, are shown with a selection of clear calls. The call rests on the fitted dose curve; in most records, active means well fitted inhibition curve with a large enough effect; inconclusive means small, poorly fitted or top-dose-only effect, or effect the other way; inactive means no such curve, though single readings can be large or run the other way. A potency beside an inconclusive call is a rough fit, not a confirmed value.
# Molecular target: Nuclear receptor ROR-gamma (Mus musculus) (UniProt P51450)
# Test: qHTS for inhibitors of ROR gamma transcriptional activity; further: nearly all actives have a fitted effect of over 60% in size
# Details: Drosophila S2 Gal4-RORgamma UAS-luciferase reporter, 20 h; series mostly up to 53.6 µM
# How it was run: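 Luminescence from a UAS-regulated Photinus luciferase reporter in stably transfected Drosophila Schneider cells is measured; decreased signal marks ROR gamma inhibition. Fusion expression is induced by 700 uM copper sulfate for 20 hr.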
# Potency means the concentration at half of the fitted maximal effect.
row,SMILES,Potency
1,CCn1c(Cc2ccccc2)nnc1SCC(=O)Nc1ccccc1N1CCOCC1,"inconclusive: 7.08 µM [activator, partial curve]"
2,CC1CCN(c2ccc(C(=O)O)cc2N)CC1,"inconclusive: 25.1 µM [activator, single point]"
3,O=C(Nc1ccc([N+](=O)[O-])cc1)Nc1ccc(N2CCOCC2)c2nonc12,inactive
4,Cc1cccc(OCCOc2ccccc2C=C(C#N)C#N)c1,"inconclusive: 10 µM [activator, partial curve]"
5,Cn1c(Cc2ccccc2)nnc1SCCC(=O)Nc1ccccc1,inactive
6,COC(=O)c1cc(S(=O)(=O)N2CCN(c3cc(C)ccc3C)CC2)c[nH]1,"inconclusive: 15.8 µM [inhibitor, single point]"
7,O=C(O)CC(Cc1ccccc1)c1ccc2c(c1)OCO2 (centres undefined),inactive
8,Cn1cnnc1SCc1ccc(C(=O)O)cc1,inactive
9,CC(=O)Nc1ccccc1OCC(=O)NCCc1ccc(Cl)cc1Cl,"inconclusive: 14.1 µM [activator, partial curve]"
10,COc1ccc(N2CCN(CCNC(=O)C3CCN(S(=O)(=O)c4cccs4)CC3)CC2)cc1,"inconclusive: 25.1 µM [activator, single point]"
11,COc1cc(C(C)=O)ccc1OCC(O)Cn1nc(C)c(Br)c1C (centres undefined),"inconclusive: 3.55 µM [activator, full curve, poor fit]"
12,COc1cc(NC(=O)C/C(C)=N/NC(=O)c2cccs2)c(OC)cc1Cl,"inconclusive: 35.5 µM [inhibitor, single point]"
13,CCN1CCc2c(sc(NC(=O)c3ccc(S(=O)(=O)N4CCCC4)cc3)c2C(=O)NC)C1,"inconclusive: 35.5 µM [inhibitor, single point]"
14,Cc1ccc(CSCCNS(=O)(=O)c2ccccc2)cc1,"inconclusive: 7.08 µM [activator, partial curve]"
15,Cc1cc(NC(=O)CSc2c(C)[nH]c3ccccc23)no1,"inconclusive: 22.4 µM [activator, single point]"
16,C/C(Cl)=C\Cn1c(NCCc2ccccc2)nc2c1c(=O)n(C)c(=O)n2C,active: 7.08 µM
17,COc1ccc(CN(C(=O)/C=C/c2ccccc2Cl)C2CCS(=O)(=O)C2)cc1 (centres undefined),"inconclusive: 10 µM [activator, partial curve]"
18,CCN(CC(=O)NCc1ccc(F)cc1)c1ccc(S(C)(=O)=O)cc1[N+](=O)[O-],inactive
19,CCOC(=O)/C=c1\s/c(=C\c2ccc3c(c2)OCCO3)c(=O)n1CC(=O)NCC1CCCO1 (centres undefined),inactive
20,COc1cc(/C=C/C(=O)N2CCc3ccccc3C2)cc(OC)c1OC,"inconclusive: 14.1 µM [activator, partial curve]"
21,Cc1ccc(N(CC(=O)Nc2cccc(C)c2)S(=O)(=O)c2cccc3nonc23)cc1,"inconclusive: 3.16 µM [activator, partial curve]"
22,CC(C)c1ccc(-c2nnn(CCC(=O)O)n2)cc1,active: 0.398 µM
23,CCOc1ccccc1C(=O)Nc1nnc(COC)s1,"inconclusive: 0.0056 µM [inhibitor, full curve, poor fit]"
24,COc1c(OC(C)=O)ccc(/C=C/c2ccc3cccc(OC)c3n2)c1[N+](=O)[O-],"inconclusive: 31.6 µM [activator, single point]"
25,O=C(CCN1C(=O)/C(=C/c2ccc(F)cc2)SC1=S)NC1C=CS(=O)(=O)C1 (centres undefined),inactive

row,SMILES,Potency
1,CCn1c(SCC(=O)c2ccc(OC)cc2)nnc1C1CC1,"inconclusive: 11.2 µM [activator, partial curve, poor fit]"
2,Cc1ccc(C(=O)O/N=C/c2c(Cl)n(C)c3ccccc23)cc1,inactive
3,Cc1ccc(NS(=O)(=O)c2ccc3c(c2)NC(=O)CCS3)cc1F,"inconclusive: 15.8 µM [activator, single point]"
4,Cc1cc(NS(=O)(=O)c2c(C)[nH]c(=O)[nH]c2=O)ccc1Br,inactive
5,O=C(O)CCN1C(=O)CC(N2C(=O)/C(=C/c3ccc(Cl)cc3)SC2=S)C1=O (centres undefined),"inconclusive: 12.6 µM [activator, single point]"
6,COc1ccccc1Nc1nc(N)nc(CN2CCN(c3ccccc3F)CC2)n1,active: 1.78 µM
7,O=C(O)c1ccc(Cl)c(S(=O)(=O)N(Cc2ccccc2)c2ccccc2Cl)c1,inactive
8,COc1cc2ncnc(NCc3ccccc3Cl)c2cc1OC,inactive
9,O=C(O)CSc1ccc2nnc(-c3cccnc3)n2n1,inactive
10,CCNc1nc(SC(C)C(=O)Nc2ccccc2)nc(N2CCOCC2)n1 (centres undefined),inactive
11,COc1cccc(-c2nc(NC(C)(C)C)c3ccccc3n2)c1O,"inconclusive: 15.8 µM [inhibitor, partial curve]"
12,COc1ccc(N(C(=O)Cn2nnc3ccccc32)C2(C(=O)NC3CCCC3)CCCCC2)cc1,inactive
13,Cc1cccc(NC(=S)N/N=C/c2ccc([N+](=O)[O-])s2)c1,active: 1.26 µM
14,Nc1nc(SCC(=O)Nc2ccc(S(N)(=O)=O)cc2)n[nH]1,"inconclusive: 6.31 µM [inhibitor, single point]"
15,C=CCNC(=S)Nc1sc2c(c1C#N)CCCC2,active: 11.2 µM
16,CC1CCN(C(=O)CSc2nc3c(c(=O)n(C)c(=O)n3C)n2C)CC1,inactive
17,Cc1ccc2[nH]c(C(=O)NN=C3CCCCC3)c(-c3ccccc3)c2c1,active: 5.01 µM
18,CSc1nc2ccc(Nc3nc(N4CCOCC4)nc(N4CCOCC4)n3)cc2s1,"inconclusive: 0.1 µM [activator, single point]"
19,Cc1ccc(NC(=S)N/N=C2\CC(C)(C)Oc3ccc(O)cc32)cc1,active: 5.62 µM
20,O=C(O)Cn1c(=S)sc2ccccc21,"inconclusive: 0.794 µM [inhibitor, single point]"
21,S=C(NCc1ccc(Cl)c(Cl)c1)Nc1ccc2c(c1)OCO2,active: 11.2 µM
22,O=C(NCCN1C(=O)S/C(=C\c2cccs2)C1=O)c1ccco1,"inconclusive: 25.1 µM [activator, partial curve]"
23,O=C(Cc1ccc2c(c1)OCCO2)c1c(O)cc(O)cc1O,inactive
24,COc1cc(OC)cc(C(=O)N[C@H](C(=O)Nc2nc3c(s2)CCCC3)C(C)C)c1,"inconclusive: 11.2 µM [activator, partial curve]"
25,CCCCOc1ccc(-c2n[nH]c(=S)n2Cc2ccccc2)cc1,active: 1.58 µM

# Part of the list above, tab-delimited.
row	SMILES	Potency
8	Cn1cnnc1SCc1ccc(C(=O)O)cc1	inactive
9	CC(=O)Nc1ccccc1OCC(=O)NCCc1ccc(Cl)cc1Cl	inconclusive: 14.1 µM [activator, partial curve]

# Two entries from above, with tabs.
row	SMILES	Potency
16	CC1CCN(C(=O)CSc2nc3c(c(=O)n(C)c(=O)n3C)n2C)CC1	inactive
19	Cc1ccc(NC(=S)N/N=C2\CC(C)(C)Oc3ccc(O)cc32)cc1	active: 5.62 µM

# Continuation.

row,SMILES,Potency
1,Cc1cccc(C2=NN(c3ccccc3)[C@H](CO)[C@H]2C)c1,"inconclusive: 50.1 µM [inhibitor, single point]"
2,COc1cccc2c(C)c(C(=O)O)[nH]c12,active: 2 µM
3,C=CC[n+]1c(-c2ccc(Cl)cc2Cl)csc1Nc1c(C)n(C)n(-c2ccccc2)c1=O,"inconclusive: 15.8 µM [inhibitor, single point]"
4,Cc1ccc(-c2nc(CSCC(=O)N3CCN(c4ccccn4)CC3)c(C)o2)cc1,"inconclusive: 35.5 µM [inhibitor, single point]"
5,Cc1cc2nc(C3CCN(CC4COc5ccccc5O4)CC3)[nH]c2cc1C (centres undefined),"inconclusive: 11.2 µM [inhibitor, single point]"
6,CC(C)CCN1CCN(Cc2ccc(C#CCCO)cc2)CC1CCO (centres undefined),inactive
7,Cn1cc(C(=O)c2ccc(Cl)cc2Cl)cc1C(=O)N/N=C(\N)COc1ccc(F)cc1,active: 2.24 µM
8,Cc1ccc(CNC(=O)c2cc(S(=O)(=O)N3CCOCC3)cn2C)cc1,"inconclusive: 12.6 µM [activator, partial curve]"
9,COc1ccc(CNC(=S)Nc2ccc(-c3ccccc3)cc2)cc1,"inconclusive: 5.62 µM [inhibitor, full curve, poor fit]"
10,CN1CCN(S(=O)(=O)c2ccc(Br)c3nsnc23)CC1,inactive
11,Cc1onc(-c2ccccc2)c1C(=O)NC(=S)NNC(=O)c1cc(-c2ccc(F)cc2)n[nH]1,"inconclusive: 17.8 µM [inhibitor, partial curve, poor fit]"
12,CN1CCN(S(=O)(=O)c2ccc(N3CCN(S(=O)(=O)/C=C/c4ccccc4)CC3)nc2)CC1,inactive
13,COc1ccc(-c2c/c(=N\c3nc(-c4ccccc4)c(C)s3)c3ccccc3o2)cc1O,inactive
14,O=S(=O)(Cc1cc(NCc2ccccc2)nc(-c2ccncc2)n1)c1ccccc1,inactive
15,Cc1ccc2nc(NC(=O)CCn3cccc3)sc2c1,inactive
16,O=C1/C(=C\c2ccc(Br)o2)Cc2ccccc21,"inconclusive: 1.41 µM [activator, full curve, poor fit]"
17,O=C(CSCc1ccc(Cl)cc1)N1CCN(Cc2ccc3c(c2)OCO3)CC1,"inconclusive: 20 µM [activator, partial curve]"
18,CCOC(=O)C1CCN(C(=O)Cn2cc(C#N)c3ccccc32)CC1,"inconclusive: 6.31 µM [inhibitor, single point]"
19,CCC/C=N/NC(=O)c1cc(Br)ccc1O,active: 11.2 µM
20,COc1ccc(-c2cc(C3CCN(c4ncccc4[N+](=O)[O-])CC3)[nH]n2)cc1,"inconclusive: 6.31 µM [activator, partial curve, poor fit]"
21,NC(=S)NNC(N)=S,"inconclusive: 28.2 µM [inhibitor, single point]"
22,Cc1ccc(O)c(CNc2nccs2)c1,"inconclusive: 14.1 µM [inhibitor, single point]"
23,Cc1nc2sccn2c1-c1csc(NCc2ccccc2)n1,"inconclusive: 35.5 µM [inhibitor, single point]"
24,COc1ccc(CNc2oc(-c3cccc4ccccc34)nc2C#N)cc1,"inconclusive: 0.316 µM [activator, single point]"
